# From article PMC6525185, “6mA-DNA-binding factor Jumu controls maternal-to-zygotic transition upstream of Zelda”
# For part of these data: The comparison behind a weaker result is the experiment's own reference, which may not be listed here. Tags and fusion partners may be left off the protein sequences shown. For part of these data: Construct, isoform or probe ends are uncertain for at least one entry. For part of these data: Results from cells or extracts need not show a direct contact.
# Columns and labels:
# Jumu (endogenous) [1] = target: T1, Jumu (endogenous) (UniProt Q7K214); assay: pull-down, western blot and MS; conditions: N6-methyladenine in place of dA, by PCR with dm6ATP (both strands; primer-derived adenines probably unmodified, primers not given); pull-down: 50 mM Tris-HCl pH 8, 150 mM NaCl, 1 mM DTT, 0.25% NP40; protein in an extract
# T1 sequence (looked up, limits assumed): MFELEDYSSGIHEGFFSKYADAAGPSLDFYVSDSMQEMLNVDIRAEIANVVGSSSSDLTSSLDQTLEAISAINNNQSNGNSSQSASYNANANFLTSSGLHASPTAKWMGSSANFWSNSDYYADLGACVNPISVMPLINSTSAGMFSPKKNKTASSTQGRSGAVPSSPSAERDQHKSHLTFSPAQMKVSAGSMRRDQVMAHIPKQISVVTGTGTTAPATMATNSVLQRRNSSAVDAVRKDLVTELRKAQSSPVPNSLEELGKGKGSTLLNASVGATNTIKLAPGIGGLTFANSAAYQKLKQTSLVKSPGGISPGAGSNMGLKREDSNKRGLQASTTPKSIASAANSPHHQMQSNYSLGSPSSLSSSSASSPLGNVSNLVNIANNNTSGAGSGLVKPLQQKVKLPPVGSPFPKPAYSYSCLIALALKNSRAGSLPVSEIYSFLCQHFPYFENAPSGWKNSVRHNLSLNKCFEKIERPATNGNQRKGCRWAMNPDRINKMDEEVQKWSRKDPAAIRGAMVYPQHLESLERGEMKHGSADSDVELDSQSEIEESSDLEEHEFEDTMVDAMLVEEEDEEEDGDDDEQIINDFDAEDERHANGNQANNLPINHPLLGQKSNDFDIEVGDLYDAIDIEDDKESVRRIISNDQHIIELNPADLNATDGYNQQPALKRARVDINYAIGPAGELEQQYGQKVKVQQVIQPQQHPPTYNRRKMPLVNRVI
# GST-Jumu FKH domain = target: T2, GST-Jumu FKH domain (UniProt Q7K214); assay: EMSA competition; conditions: 10, 20, 40-fold competitor, 2 µM protein; EMSA: 20 mM HEPES pH 7.5, 50 mM KCl, 1 mM DTT (printed DDT), 1 mM EDTA, 0.01 mg/ml BSA, 2% Ficoll 400, 5 ng/µl poly(dI:dC), 25 °C, 15 nM probe; recombinant protein; residues 391-540; protein details: GST
# T2 sequence (looked up): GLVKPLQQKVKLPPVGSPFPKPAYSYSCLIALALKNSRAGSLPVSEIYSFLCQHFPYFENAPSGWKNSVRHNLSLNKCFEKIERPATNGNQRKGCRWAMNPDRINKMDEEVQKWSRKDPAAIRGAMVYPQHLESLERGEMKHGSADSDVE
# Jumu (endogenous) [2] = target: T1, Jumu (endogenous); assay: pull-down, western blot; conditions: pull-down: 50 mM Tris-HCl pH 8, 150 mM NaCl, 1 mM DTT, 0.25% NP40; protein in an extract
Sequence,binding result (Jumu (endogenous) [1]),binding result (GST-Jumu FKH domain),binding result (Jumu (endogenous) [2])
GCTATTTATGCGTTCTTTTCTTCTTTCTCATTTCTATATTTATAGTGTGTGTGTGTGTGTGGGTGTGTTTGTTGTATGTGGTTAAATATGCTTCGTTTTTGTTTAATTGGTTTTTGTTTTTGTGATGATCATGGG (double strand) [6mA-dsDNA probe],binds,,
GCTATTTATGCGTTCTTTTCTTCTTTCTCATTTCTATATTTATAGTGTGTGTGTGTGTGTGGGTGTGTTTGTTGTATGTGGTTAAATATGCTTCGTTTTTGTTTAATTGGTTTTTGTTTTTGTGATGATCATGGG (double strand) [dA-dsDNA probe],,binds more weakly,binds more weakly
